Measurements taken from the supplement of paper PMC12823440, “Inhibitors supercharge kinase turnover through native proteolytic circuits” (Nature, 2025).
Where a name gives a salt, the structure may show the parent alone. Some of the results follow. The calls rarely recur for the same compound in another form.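 In K562 cells expressing nanoluciferase-fused kinases, luminescence was recorded at 4 h intervals between 2 and 18 h, normalized as percent of control with DMSO at 100% and a positive control at 0%. A significant (2 sigma) signal drop marks a time point as decreased. The authors' rule for a hit is not shown and takes in more than the number of time points.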

The chains behind the UniProt entries cited, without tags or fusion partners. Where a name states a change or a piece, a line headed by the entry shows the natural chain unless it says otherwise.
UniProt P07949, whole entry, looked up: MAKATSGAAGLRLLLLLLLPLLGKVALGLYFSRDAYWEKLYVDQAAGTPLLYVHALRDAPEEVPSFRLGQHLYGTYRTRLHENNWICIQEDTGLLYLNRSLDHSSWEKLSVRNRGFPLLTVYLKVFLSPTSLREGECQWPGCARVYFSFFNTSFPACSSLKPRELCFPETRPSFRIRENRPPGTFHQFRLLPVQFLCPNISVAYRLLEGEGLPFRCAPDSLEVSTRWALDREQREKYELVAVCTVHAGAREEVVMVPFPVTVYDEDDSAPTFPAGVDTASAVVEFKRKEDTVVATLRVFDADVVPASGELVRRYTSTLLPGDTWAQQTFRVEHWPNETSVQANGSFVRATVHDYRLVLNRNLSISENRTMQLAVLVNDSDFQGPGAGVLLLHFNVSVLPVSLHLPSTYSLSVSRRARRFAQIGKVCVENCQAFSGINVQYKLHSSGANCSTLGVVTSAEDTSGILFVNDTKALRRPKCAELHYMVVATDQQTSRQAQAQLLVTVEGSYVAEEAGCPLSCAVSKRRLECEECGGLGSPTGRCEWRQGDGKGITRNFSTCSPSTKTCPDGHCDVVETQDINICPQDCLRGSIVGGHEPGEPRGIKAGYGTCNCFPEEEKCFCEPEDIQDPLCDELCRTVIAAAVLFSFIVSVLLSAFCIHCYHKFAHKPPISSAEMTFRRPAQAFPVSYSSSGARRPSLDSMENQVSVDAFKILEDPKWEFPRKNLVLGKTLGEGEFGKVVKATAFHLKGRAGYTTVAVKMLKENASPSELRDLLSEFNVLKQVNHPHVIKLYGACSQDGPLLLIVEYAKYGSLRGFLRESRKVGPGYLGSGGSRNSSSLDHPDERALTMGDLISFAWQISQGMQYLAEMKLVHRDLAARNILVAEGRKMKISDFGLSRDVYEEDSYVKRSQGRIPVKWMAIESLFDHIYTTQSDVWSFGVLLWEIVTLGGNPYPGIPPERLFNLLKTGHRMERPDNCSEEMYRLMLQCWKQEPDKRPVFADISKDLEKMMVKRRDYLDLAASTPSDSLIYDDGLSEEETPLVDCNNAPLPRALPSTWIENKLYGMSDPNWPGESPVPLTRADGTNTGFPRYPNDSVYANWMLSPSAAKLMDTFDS
UniProt P07949, whole entry M918T, looked up: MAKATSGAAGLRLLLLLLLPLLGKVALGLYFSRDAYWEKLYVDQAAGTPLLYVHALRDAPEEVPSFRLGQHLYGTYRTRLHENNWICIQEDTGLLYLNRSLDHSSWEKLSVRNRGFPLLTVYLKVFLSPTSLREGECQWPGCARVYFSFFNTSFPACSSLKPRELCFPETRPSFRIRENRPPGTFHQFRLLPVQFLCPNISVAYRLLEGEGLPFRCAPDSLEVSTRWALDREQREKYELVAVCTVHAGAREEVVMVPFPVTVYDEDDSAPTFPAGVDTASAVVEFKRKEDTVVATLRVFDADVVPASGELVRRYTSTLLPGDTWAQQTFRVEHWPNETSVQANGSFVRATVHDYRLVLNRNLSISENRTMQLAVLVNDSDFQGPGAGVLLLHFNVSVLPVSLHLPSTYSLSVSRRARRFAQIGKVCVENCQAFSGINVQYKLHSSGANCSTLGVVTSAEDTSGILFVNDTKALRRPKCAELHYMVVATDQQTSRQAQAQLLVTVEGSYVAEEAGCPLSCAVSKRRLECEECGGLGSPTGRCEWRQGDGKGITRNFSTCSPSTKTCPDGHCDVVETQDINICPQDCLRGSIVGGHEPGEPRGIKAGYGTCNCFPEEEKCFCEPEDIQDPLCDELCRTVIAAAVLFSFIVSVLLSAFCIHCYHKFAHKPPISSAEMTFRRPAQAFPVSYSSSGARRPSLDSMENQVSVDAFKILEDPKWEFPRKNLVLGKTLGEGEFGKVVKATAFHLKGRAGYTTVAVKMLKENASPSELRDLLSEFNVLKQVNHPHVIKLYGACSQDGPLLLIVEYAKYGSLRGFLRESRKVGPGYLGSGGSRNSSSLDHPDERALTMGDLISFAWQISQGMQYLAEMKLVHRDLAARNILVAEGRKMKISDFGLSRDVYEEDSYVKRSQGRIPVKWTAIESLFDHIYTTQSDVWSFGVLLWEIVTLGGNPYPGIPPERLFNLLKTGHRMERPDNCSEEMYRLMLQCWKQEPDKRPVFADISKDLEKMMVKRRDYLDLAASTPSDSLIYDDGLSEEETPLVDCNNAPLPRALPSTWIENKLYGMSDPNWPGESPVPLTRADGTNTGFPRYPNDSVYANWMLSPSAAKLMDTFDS
UniProt Q9BRS2: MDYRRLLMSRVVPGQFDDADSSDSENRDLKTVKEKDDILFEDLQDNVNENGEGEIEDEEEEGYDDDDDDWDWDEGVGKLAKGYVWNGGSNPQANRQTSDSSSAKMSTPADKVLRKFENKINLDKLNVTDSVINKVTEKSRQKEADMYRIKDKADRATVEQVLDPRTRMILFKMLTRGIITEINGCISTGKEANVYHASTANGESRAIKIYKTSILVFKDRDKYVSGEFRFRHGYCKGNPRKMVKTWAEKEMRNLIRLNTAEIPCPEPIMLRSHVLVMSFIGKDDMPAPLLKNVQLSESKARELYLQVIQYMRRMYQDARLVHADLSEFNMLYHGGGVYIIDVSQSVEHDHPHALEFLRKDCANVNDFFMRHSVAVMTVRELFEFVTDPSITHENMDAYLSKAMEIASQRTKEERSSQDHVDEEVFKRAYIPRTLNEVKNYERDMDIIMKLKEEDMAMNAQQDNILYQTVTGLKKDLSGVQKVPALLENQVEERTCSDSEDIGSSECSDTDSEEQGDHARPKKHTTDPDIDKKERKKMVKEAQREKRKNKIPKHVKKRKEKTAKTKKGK
UniProt Q13546: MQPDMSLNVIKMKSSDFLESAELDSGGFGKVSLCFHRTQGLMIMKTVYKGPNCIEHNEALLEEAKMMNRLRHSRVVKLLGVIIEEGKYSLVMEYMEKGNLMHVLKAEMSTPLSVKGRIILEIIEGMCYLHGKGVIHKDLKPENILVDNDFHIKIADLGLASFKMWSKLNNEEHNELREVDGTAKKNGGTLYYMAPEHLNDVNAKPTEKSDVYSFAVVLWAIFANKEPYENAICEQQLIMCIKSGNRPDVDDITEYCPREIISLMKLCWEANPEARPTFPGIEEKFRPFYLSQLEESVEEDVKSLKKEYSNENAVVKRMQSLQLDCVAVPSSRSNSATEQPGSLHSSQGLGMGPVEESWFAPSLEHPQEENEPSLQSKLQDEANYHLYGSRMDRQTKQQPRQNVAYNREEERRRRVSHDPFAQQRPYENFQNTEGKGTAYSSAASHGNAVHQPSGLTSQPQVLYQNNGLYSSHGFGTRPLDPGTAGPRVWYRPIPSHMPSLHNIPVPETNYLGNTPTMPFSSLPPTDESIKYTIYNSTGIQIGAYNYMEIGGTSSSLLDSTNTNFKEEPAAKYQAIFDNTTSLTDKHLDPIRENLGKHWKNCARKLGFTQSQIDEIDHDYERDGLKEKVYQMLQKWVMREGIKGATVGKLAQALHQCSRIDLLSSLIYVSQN
UniProt Q01974, whole entry: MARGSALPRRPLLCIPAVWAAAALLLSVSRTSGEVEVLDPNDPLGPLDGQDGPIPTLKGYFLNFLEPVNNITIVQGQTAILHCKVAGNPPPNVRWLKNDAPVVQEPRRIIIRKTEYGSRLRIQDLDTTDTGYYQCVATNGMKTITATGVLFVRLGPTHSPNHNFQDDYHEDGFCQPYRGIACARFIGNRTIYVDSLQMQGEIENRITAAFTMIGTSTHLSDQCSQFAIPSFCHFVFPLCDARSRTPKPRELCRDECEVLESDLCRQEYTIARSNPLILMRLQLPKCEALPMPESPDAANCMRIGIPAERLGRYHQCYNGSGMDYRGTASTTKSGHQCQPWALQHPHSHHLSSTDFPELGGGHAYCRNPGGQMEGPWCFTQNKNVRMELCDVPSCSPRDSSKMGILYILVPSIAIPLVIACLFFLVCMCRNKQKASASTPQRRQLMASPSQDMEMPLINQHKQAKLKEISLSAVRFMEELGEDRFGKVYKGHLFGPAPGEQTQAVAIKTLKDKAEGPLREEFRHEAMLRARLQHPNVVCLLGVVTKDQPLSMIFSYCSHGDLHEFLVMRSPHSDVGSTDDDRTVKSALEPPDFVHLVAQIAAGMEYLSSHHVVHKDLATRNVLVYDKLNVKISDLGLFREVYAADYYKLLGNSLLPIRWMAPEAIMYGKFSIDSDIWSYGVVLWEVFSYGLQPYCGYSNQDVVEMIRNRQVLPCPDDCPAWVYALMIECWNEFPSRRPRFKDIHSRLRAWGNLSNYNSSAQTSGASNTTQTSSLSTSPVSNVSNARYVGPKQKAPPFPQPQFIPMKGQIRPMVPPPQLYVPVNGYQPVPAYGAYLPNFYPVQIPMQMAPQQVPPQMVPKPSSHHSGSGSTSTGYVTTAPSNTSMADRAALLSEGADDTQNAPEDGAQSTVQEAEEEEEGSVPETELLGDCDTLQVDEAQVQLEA
UniProt Q15418, whole entry: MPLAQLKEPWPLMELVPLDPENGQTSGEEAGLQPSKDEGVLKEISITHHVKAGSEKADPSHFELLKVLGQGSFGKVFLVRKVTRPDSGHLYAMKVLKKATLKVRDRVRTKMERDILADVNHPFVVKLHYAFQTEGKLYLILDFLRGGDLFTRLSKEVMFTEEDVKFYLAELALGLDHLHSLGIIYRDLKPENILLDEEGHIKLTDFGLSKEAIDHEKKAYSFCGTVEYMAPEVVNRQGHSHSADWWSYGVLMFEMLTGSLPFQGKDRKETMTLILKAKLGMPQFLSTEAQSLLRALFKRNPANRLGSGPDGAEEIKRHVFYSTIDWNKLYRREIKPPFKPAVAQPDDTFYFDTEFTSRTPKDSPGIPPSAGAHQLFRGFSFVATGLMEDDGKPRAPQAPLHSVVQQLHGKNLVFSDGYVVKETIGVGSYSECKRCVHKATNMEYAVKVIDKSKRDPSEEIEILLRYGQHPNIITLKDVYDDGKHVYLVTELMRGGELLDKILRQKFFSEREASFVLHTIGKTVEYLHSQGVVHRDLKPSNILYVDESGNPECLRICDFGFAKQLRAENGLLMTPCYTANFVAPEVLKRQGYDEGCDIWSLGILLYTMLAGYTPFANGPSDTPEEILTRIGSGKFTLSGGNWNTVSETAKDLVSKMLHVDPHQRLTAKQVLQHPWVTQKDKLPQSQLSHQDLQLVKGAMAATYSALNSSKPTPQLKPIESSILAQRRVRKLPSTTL
UniProt Q9NYA1, whole entry: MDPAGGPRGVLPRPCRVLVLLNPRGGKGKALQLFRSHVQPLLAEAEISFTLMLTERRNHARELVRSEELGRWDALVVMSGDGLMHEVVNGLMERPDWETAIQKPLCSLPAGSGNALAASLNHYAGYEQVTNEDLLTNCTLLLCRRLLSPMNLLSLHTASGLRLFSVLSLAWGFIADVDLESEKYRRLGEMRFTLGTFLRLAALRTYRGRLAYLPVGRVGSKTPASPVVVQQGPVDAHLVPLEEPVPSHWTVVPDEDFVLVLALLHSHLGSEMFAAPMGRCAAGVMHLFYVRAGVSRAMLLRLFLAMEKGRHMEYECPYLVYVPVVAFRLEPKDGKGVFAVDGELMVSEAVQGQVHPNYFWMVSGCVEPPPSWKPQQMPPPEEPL
UniProt Q9Y6E0: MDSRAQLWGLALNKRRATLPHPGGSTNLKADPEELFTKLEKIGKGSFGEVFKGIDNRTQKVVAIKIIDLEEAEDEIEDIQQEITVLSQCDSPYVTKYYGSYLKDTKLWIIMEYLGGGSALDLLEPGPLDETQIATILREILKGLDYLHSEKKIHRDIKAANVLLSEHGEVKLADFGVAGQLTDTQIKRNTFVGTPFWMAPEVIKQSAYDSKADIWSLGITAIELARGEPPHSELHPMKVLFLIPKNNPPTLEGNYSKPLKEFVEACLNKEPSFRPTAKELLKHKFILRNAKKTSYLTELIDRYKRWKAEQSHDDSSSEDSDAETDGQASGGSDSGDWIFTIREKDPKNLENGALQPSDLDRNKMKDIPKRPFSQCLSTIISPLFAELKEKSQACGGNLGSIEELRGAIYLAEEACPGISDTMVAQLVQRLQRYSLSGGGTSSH

Key:
Test in all cases: kinase-Nluc reporter destabilization hit call (1 = scored as downregulated) (binary); higher = compound decreases kinase abundance
Settings in all cases: K562; 2-18 h
RET = RET (UniProt P07949)
[1] = target: RET_M918T (clone: RET_mut) (UniProt P07949)
RIOK1 = RIOK1 (UniProt Q9BRS2)
RIPK1 = RIPK1 (UniProt Q13546)
RIPK2 = RIPK2 (UniProt O43353)
ROR2 = ROR2 (UniProt Q01974)
RPS6KA1 = RPS6KA1 (UniProt Q15418)
SPHK1 = SPHK1 (UniProt Q9NYA1)
SRC = SRC (UniProt P12931)
STK24 = STK24 (UniProt Q9Y6E0)

Measured: kinase-Nluc reporter destabilization hit call

CC(C)(C)C(=O)N1N=CC[C@H]1c1ccccc1 (10 µM)
inactive: RET 0 | [1] 0 | RIOK1 = 0 | RIPK1 = 0 | RIPK2 = 0 | ROR2 = 0 | RPS6KA1 = 0 | SPHK1 = 0 | SRC 0 | STK24 = 0

C=CS(=O)(=O)c1ccc(Nc2nc(OCC3CCCCC3)c3[nH]cnc3n2)cc1 (2.5 µM)
inactive: RET 0 | [1] 0 | RIOK1 = 0 | RIPK1 = 0 | RIPK2 = 0 | ROR2 = 0 | RPS6KA1 = 0 | SPHK1 = 0 | SRC 0 | STK24 = 0

CC[C@H](C)[C@H](NC(=O)[C@H](CCC(=O)O)NC(=O)[C@H](CCCN=C(N)N)NC(=O)[C@H](CCCN=C(N)N)NC(=O)[C@@H](N)CCCCN)C(=O)N[C@@H](CC(C)C)C(=O)N[C@@H](CO)C(=O)N[C@@H](CCCN=C(N)N)C(=O)N[C@@H](CCCN=C(N)N)C(=O)N1CCC[C@H]1C(=O)N[C@@H](CO)C(=O)N[C@@H](Cc1ccc(O)cc1)C(=O)N[C@@H](CCCN=C(N)N)C(=O)O [CREBtide] (10 µM)
inactive: RET 0 | [1] 0 | RIOK1 = 0 | RIPK1 = 0 | RIPK2 = 0 | ROR2 = 0 | RPS6KA1 = 0 | SPHK1 = 0 | SRC 0 | STK24 = 0

CC(CCc1ccccn1)(CCc1ccccn1)C(=O)c1ccccc1 (10 µM)
inactive: RET 0 | [1] 0 | RIOK1 = 0 | RIPK1 = 0 | RIPK2 = 0 | ROR2 = 0 | RPS6KA1 = 0 | SPHK1 = 0 | SRC 0 | STK24 = 0

O=C1NC(=O)C(c2cn(-c3ccccc3)nc2-c2ccc(F)cc2)N1 (stereo not given) (10 µM)
inactive: RET 0 | [1] 0 | RIOK1 = 0 | RIPK1 = 0 | RIPK2 = 0 | ROR2 = 0 | RPS6KA1 = 0 | SPHK1 = 0 | SRC 0 | STK24 = 0

CC(C)Oc1ccc(-c2cnc3c(-c4ccnc5ccccc45)cnn3c2)cc1 (10 µM)
inactive: RET 0 | [1] 0 | RIOK1 = 0 | RIPK1 = 0 | RIPK2 = 0 | ROR2 = 0 | RPS6KA1 = 0 | SPHK1 = 0 | SRC 0 | STK24 = 0

Fc1c(Br)cccc1Nc1ncnc2cc3c(cc12)OCCO3 (2.5 µM)
inactive: RET 0 | [1] 0 | RIOK1 = 0 | RIPK1 = 0 | RIPK2 = 0 | ROR2 = 0 | RPS6KA1 = 0 | SPHK1 = 0 | SRC 0 | STK24 = 0

CC1=C(C(=O)Nc2ccc3[nH]ncc3c2)C(c2ccc(F)cc2)NC(=O)N1 (stereo not given) (10 µM)
inactive: RET 0 | [1] 0 | RIOK1 = 0 | RIPK1 = 0 | RIPK2 = 0 | ROR2 = 0 | RPS6KA1 = 0 | SPHK1 = 0 | SRC 0 | STK24 = 0

Cn1cc(-c2ccc(F)c(C(F)(F)F)c2)nc1C1CCN(c2ncnc3[nH]ncc23)CC1 (10 µM)
inactive: RET 0 | [1] 0 | RIOK1 = 0 | RIPK1 = 0 | RIPK2 = 0 | ROR2 = 0 | RPS6KA1 = 0 | SPHK1 = 0 | SRC 0 | STK24 = 0

CN1CCN(CCCNc2ncc(Cl)c(-c3cc4c(C(=O)NC5CC5)cccc4s3)n2)CC1 (10 µM)
inactive: RET 0 | [1] 0 | RIOK1 = 0 | RIPK1 = 0 | RIPK2 = 0 | ROR2 = 0 | RPS6KA1 = 0 | SPHK1 = 0 | SRC 0 | STK24 = 0

CCc1c(C)sc(NC(=S)NC(=O)c2ccc(Cl)cc2)c1C(N)=O (10 µM)
inactive: RET 0 | [1] 0 | RIOK1 = 0 | RIPK1 = 0 | RIPK2 = 0 | ROR2 = 0 | RPS6KA1 = 0 | SPHK1 = 0 | SRC 0 | STK24 = 0

O=C1NC(=O)C(c2cnc3ccccn23)=C1c1cn2c3c(cc(F)cc13)CN(C(=O)N1CCCCC1)CC2 (2.5 µM)
inactive: RET 0 | [1] 0 | RIOK1 = 0 | RIPK1 = 0 | RIPK2 = 0 | ROR2 = 0 | RPS6KA1 = 0 | SPHK1 = 0 | SRC 0 | STK24 = 0

Nc1cccc(S(=O)(=O)N2CCCN(S(=O)(=O)c3ccc4c(c3)OCCO4)CC2)c1 (10 µM)
inactive: RET 0 | [1] 0 | RIOK1 = 0 | RIPK1 = 0 | RIPK2 = 0 | ROR2 = 0 | RPS6KA1 = 0 | SPHK1 = 0 | SRC 0 | STK24 = 0

COc1c(C)c(C(=O)c2ccc(N)c(C(=O)O)c2)n2ccccc12 (10 µM)
inactive: RET 0 | [1] 0 | RIOK1 = 0 | RIPK1 = 0 | RIPK2 = 0 | ROR2 = 0 | RPS6KA1 = 0 | SPHK1 = 0 | SRC 0 | STK24 = 0

O=C(Nc1ccc(Cl)c(Cl)c1)Nc1ccc2nnsc2c1 (10 µM)
inactive: RET 0 | [1] 0 | RIOK1 = 0 | RIPK1 = 0 | RIPK2 = 0 | ROR2 = 0 | RPS6KA1 = 0 | SPHK1 = 0 | SRC 0 | STK24 = 0

Cc1nc(NC(=O)NCCc2nnn(CCF)n2)sc1-c1ccc(S(C)(=O)=O)c(F)c1 (10 µM)
inactive: RET 0 | [1] 0 | RIOK1 = 0 | RIPK1 = 0 | RIPK2 = 0 | ROR2 = 0 | RPS6KA1 = 0 | SPHK1 = 0 | SRC 0 | STK24 = 0

O=C1NC(=O)/C(=C/c2ccc(-c3ccc(F)cc3O)o2)S1 (10 µM)
inactive: RET 0 | [1] 0 | RIOK1 = 0 | RIPK1 = 0 | RIPK2 = 0 | ROR2 = 0 | RPS6KA1 = 0 | SPHK1 = 0 | SRC 0 | STK24 = 0

Nc1cc(C(F)F)c(-c2nc(N3C4CCC3COC4)nc(N3C4CCC3COC4)n2)cn1 (2.5 µM)
inactive: RET 0 | [1] 0 | RIOK1 = 0 | RIPK1 = 0 | RIPK2 = 0 | ROR2 = 0 | RPS6KA1 = 0 | SPHK1 = 0 | SRC 0 | STK24 = 0

CCN1C(=O)CNc2ncc(-c3ccc(-c4nc[nH]n4)nc3C)nc21 [CC-115 (hydrochloride)] (2.5 µM)
inactive: RET 0 | [1] 0 | RIOK1 = 0 | RIPK1 = 0 | RIPK2 = 0 | ROR2 = 0 | RPS6KA1 = 0 | SPHK1 = 0 | SRC 0 | STK24 = 0

c1cc(-c2cnn3cc(-c4ccc(N5CCNCC5)cc4)cnc23)c2cccnc2c1 (2.5 µM)
inactive: RET 0 | [1] 0 | RIOK1 = 0 | RIPK1 = 0 | RIPK2 = 0 | ROR2 = 0 | RPS6KA1 = 0 | SPHK1 = 0 | SRC 0 | STK24 = 0

CC1(COc2ccc3c(c2)ncn3-c2ccc3cccc(N4CCC(N)CC4)c3n2)COC1 [Crenolanib] (2.5 µM)
inactive: RET 0 | [1] 0 | RIOK1 = 0 | RIPK1 = 0 | RIPK2 = 0 | ROR2 = 0 | RPS6KA1 = 0 | SPHK1 = 0 | SRC 0 | STK24 = 0

CNC(=O)c1cc(Oc2ccc3nc(N[C@@H]4CCCC[C@H]4O)sc3c2)ccn1 (10 µM)
inactive: RET 0 | [1] 0 | RIOK1 = 0 | RIPK1 = 0 | RIPK2 = 0 | ROR2 = 0 | RPS6KA1 = 0 | SPHK1 = 0 | SRC 0 | STK24 = 0

Among those listed so far, 2 contain a thiophene ring, fused or not:
CN1CCN(CCCNc2ncc(Cl)c(-c3cc4c(C(=O)NC5CC5)cccc4s3)n2)CC1 (10 µM)
inactive: RET 0 | [1] 0 | RIOK1 = 0 | RIPK1 = 0 | RIPK2 = 0 | ROR2 = 0 | RPS6KA1 = 0 | SPHK1 = 0 | SRC 0 | STK24 = 0

CCc1c(C)sc(NC(=S)NC(=O)c2ccc(Cl)cc2)c1C(N)=O (10 µM)
inactive: RET 0 | [1] 0 | RIOK1 = 0 | RIPK1 = 0 | RIPK2 = 0 | ROR2 = 0 | RPS6KA1 = 0 | SPHK1 = 0 | SRC 0 | STK24 = 0

(more compounds)

C=CC(=O)N1CCC(Oc2cc3c(Nc4ccc(Cl)c(Cl)c4F)ncnc3cc2OC)CC1 [Poziotinib] (2.5 µM)
inactive: RET 0 | [1] 0 | RIOK1 = 0 | RIPK1 = 0 | RIPK2 = 0 | ROR2 = 0 | RPS6KA1 = 0 | SPHK1 = 0 | SRC 0 | STK24 = 0

CCCCCCCC/C=C\CCCCCCCC(=O)NCC(=O)O [N-Oleoyl glycine] (10 µM)
inactive: RET 0 | [1] 0 | RIOK1 = 0 | RIPK1 = 0 | RIPK2 = 0 | ROR2 = 0 | RPS6KA1 = 0 | SPHK1 = 0 | SRC 0 | STK24 = 0

O=C1NC(=O)C(=Cc2ccc3c(c2)OCO3)S1 (10 µM)
inactive: RET 0 | [1] 0 | RIOK1 = 0 | RIPK1 = 0 | RIPK2 = 0 | ROR2 = 0 | RPS6KA1 = 0 | SPHK1 = 0 | SRC 0 | STK24 = 0

O=c1[nH]ccc2cc(OC3CCNCC3)ccc12 (10 µM)
inactive: RET 0 | [1] 0 | RIOK1 = 0 | RIPK1 = 0 | RIPK2 = 0 | ROR2 = 0 | RPS6KA1 = 0 | SPHK1 = 0 | SRC 0 | STK24 = 0

CN1C(=O)NC(Cc2c[nH]c3c(Cl)cccc23)C1=O (racemic) [Necrostatin 2 (racemate)] (10 µM)
inactive: RET 0 | [1] 0 | RIOK1 = 0 | RIPK1 = 0 | RIPK2 = 0 | ROR2 = 0 | RPS6KA1 = 0 | SPHK1 = 0 | SRC 0 | STK24 = 0

CCN(C)C(=O)c1ccc2c(C(=Nc3ccc(CN4CCCCC4)cc3)c3ccccc3)c(O)[nH]c2c1 (2.5 µM)
inactive: RET 0 | [1] 0 | RIOK1 = 0 | RIPK1 = 0 | RIPK2 = 0 | ROR2 = 0 | RPS6KA1 = 0 | SPHK1 = 0 | SRC 0 | STK24 = 0

O=c1ccoc2cc(O)ccc12 [7-Hydroxy-4H-chromen-4-one] (10 µM)
inactive: RET 0 | [1] 0 | RIOK1 = 0 | RIPK1 = 0 | RIPK2 = 0 | ROR2 = 0 | RPS6KA1 = 0 | SPHK1 = 0 | SRC 0 | STK24 = 0
